Record: PubChem BioAssay AID1259254 (NCATS, 2017)
The deposit covers about 59,000 reagents; shown is a part drawn at random. About 1,550 of them (2.6%) were called active. 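G2 share is only a proxy for re-replication; each gene was hit by three separate siRNAs, and active genes were retested.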 The numbers tell different reagents against one gene apart. Not all columns of the deposit are shown. No sequences are given here. Not stated in the record: the amount of reagent.

Aim: 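Gene knock-downs that lead to re-replication, shown by excess G2 DNA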 (primary screen)
Cell system: human HCT116 colorectal cancer cells
Reagents: single siRNA against human genes
Time to read-out: 3 days
Measured: 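Nuclei stained with Hoechst and imaged; cell-cycle phase assigned by DNA content; G2 share scaled per plate, non-targeting siRNA 0%, GMNN siRNA 100%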
Reading the numbers: G2 robust z-score and G2 cells, % of GMNN control: higher = more G2 cells, more excess DNA replication
Active means: 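An siRNA counts as active if its G2 robust z-score lies at least 5 MADs above the screen median; here such calls match roughly 38% of GMNN control or more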

gene	siRNA no.	G2 robust z-score	G2 cells, % of GMNN control	activity call
EIF4E3 (GeneID 317649)	1	0.317	5.2	inactive
EIF4E3 (GeneID 317649)	2	-0.748	-2.3	inactive
EIF4E3 (GeneID 317649)	3	0.141	3.96	inactive
POLR3C (GeneID 10623)	1	2.74	22.3	inactive
POLR3C (GeneID 10623)	2	-0.998	-4.06	inactive
POLR3C (GeneID 10623)	3	1.64	14.5	inactive
ZC3H11B (GeneID 643136)	1	-0.134	2.03	inactive
ZC3H11B (GeneID 643136)	2	-0.105	2.23	inactive
ZC3H11B (GeneID 643136)	3	-1.14	-5.04	inactive
RTN4RL1 (GeneID 146760)	1	-0.499	-0.544	inactive
RTN4RL1 (GeneID 146760)	2	-0.986	-3.97	inactive
RTN4RL1 (GeneID 146760)	3	3.3	26.2	inactive
PLSCR4 (GeneID 57088)	1	-1.13	-4.99	inactive
PLSCR4 (GeneID 57088)	2	0.446	6.1	inactive
PLSCR4 (GeneID 57088)	3	-0.992	-4.01	inactive
MICAL3 (GeneID 57553)	1	-0.774	-2.48	inactive
MICAL3 (GeneID 57553)	2	0.731	8.11	inactive
MICAL3 (GeneID 57553)	3	0.981	9.87	inactive
CHEK2P2 (GeneID 646096)	1	1.04	10.3	inactive
CHEK2P2 (GeneID 646096)	2	-0.335	0.612	inactive
CHEK2P2 (GeneID 646096)	3	4.14	32.1	inactive
SLC45A4 (GeneID 57210)	1	0.0744	3.49	inactive
SLC45A4 (GeneID 57210)	2	-1.19	-5.41	inactive
SLC45A4 (GeneID 57210)	3	1.5	13.5	inactive
DUOX2 (GeneID 50506)	1	0.707	7.94	inactive
DUOX2 (GeneID 50506)	2	3.63	28.5	inactive
DUOX2 (GeneID 50506)	3	-0.103	2.24	inactive
LCN6 (GeneID 158062)	1	-0.127	2.08	inactive
LCN6 (GeneID 158062)	2	-1.36	-6.61	inactive
LCN6 (GeneID 158062)	3	1.87	16.1	inactive
TMEM102 (GeneID 284114)	1	-0.609	-1.32	inactive
TMEM102 (GeneID 284114)	2	0.311	5.15	inactive
TMEM102 (GeneID 284114)	3	-0.685	-1.85	inactive
TACO1 (GeneID 51204)	1	2.18	18.3	inactive
TACO1 (GeneID 51204)	2	-1.15	-5.14	inactive
TACO1 (GeneID 51204)	3	0.0432	3.27	inactive
LTAP1 (GeneID 25912)	1	5.38	40.8	active
LTAP1 (GeneID 25912)	2	-0.298	0.868	inactive
LTAP1 (GeneID 25912)	3	-0.832	-2.89	inactive
CXXC1 (GeneID 30827)	1	0.484	6.37	inactive
CXXC1 (GeneID 30827)	2	-0.42	0.0121	inactive
CXXC1 (GeneID 30827)	3	2.55	20.9	inactive
C1orf141 (GeneID 400757)	1	1.43	13.1	inactive
C1orf141 (GeneID 400757)	2	-0.725	-2.14	inactive
C1orf141 (GeneID 400757)	3	0.738	8.16	inactive
PIWIL4 (GeneID 143689)	1	0.141	3.96	inactive
PIWIL4 (GeneID 143689)	2	1.2	11.4	inactive
PIWIL4 (GeneID 143689)	3	1.58	14.1	inactive
